PMC5413348, “Structure of Fam20A reveals a pseudokinase featuring a unique disulfide pattern and inverted ATP-binding” (eLife, 2017)
No constants are given. Whether binding was seen depends on the method and setting. Binding seen in cells or lysates may run through a third protein. Some binding calls cover weakened binding; strength is not graded here. Where a sequence is shown, tags or fusion partners need not be part of it.

Biological target: Fam20A wild type, Flag-tagged or V5-tagged, expressed in U2OS cells (human) (UniProt Q96MK3)
Assay: co-IP; Flag- and V5-tagged proteins co-expressed in U2OS cells, co-immunoprecipitated, immunoblotting

binding: binds
B1: Fam20A wild type, Flag-tagged or V5-tagged, expressed in U2OS cells (protein, UniProt Q96MK3 34-541)
chain: QLRPRERPRGCPCTGRASSLARDSAAAASDPGTIVHNFSRTEPRTEPAGGSHSGSSSKLQALFAHPLYNVPEEPPLLGAEDSLLASQEALRYYRRKVARWNRRHKMYREQMNLTSLDPPLQLRLEASWVQFHLGINRHGLYSRSSPVVSKLLQDMRHFPTISADYSQDEKALLGACDCTQIVKPSGVHLKLVLRFSDFGKAMFKPMRQQRDEETPVDFFYFIDFQRHNAEIAAFHLDRILDFRRVPPTVGRIVNVTKEILEVTKNEILQSVFFVSPASNVCFFAKCPYMCKTEYAVCGNPHLLEGSLSAFLPSLNLAPRLSVPNPWIRSYTLAGKEEWEVNPLYCDTVKQIYPYNNSQRLLNVIDMAIFDFLIGNMDRHHYEMFTKFGDDGFLIHLDNARGFGRHSHDEISILSPLSQCCMIKKKTLLHLQLLAQADYRLSDVMRESLLEDQLSPVLTEPHLLALDRRLQTILRTVEGCIVAHGQQSVIVDGPVEQLAPDSGQANLTS
